Results are given in words; binding and its absence hold for the method and conditions named. A result given as binding can be weak or reduced; the word gives no strength.

In test [1] the target is Xenopus laevis FANCA, full length (Xenopus laevis). Kind of test: SEC; co-expressed, purified FANCA-FANCG complex on Superdex 200 10/300 GL; 25 mM Tris-HCl pH 8.0, 0.2 M NaCl, 2 mM DTT; both purified.
For test [2] the target is unchanged. Kind of test: cryo-EM structure; single-particle cryo-EM of the purified FANCA-FANCG complex (0.8 mg/ml, 0.003% DDM); four classes: FANCA CTD dimer at 3.35 and 3.46 A, two FANCA-FANCG complexes at 4.59 and 4.84 A; both purified.

B1: Xenopus laevis FANCG, full length (protein, UniProt A6YGN3 1-591)
chain: MAGLPATPQSLPLELSVLYNMLIFHIHSTSGFQDEHNKHIAETLSRVLRVCSPGVNVQSNEELWHQLVHGGYSSELAASLHRLAGLQGALWLAEEKLQEVHDLFSLLLHPEDSECSTNLRAEEKLLALLKAWRVSNEAEEKVLVVQPAQQLRDVLYTSAAFLQGILAMEASQHPYAINLFGEAAESLCSGRVLAQVYTCLGFCFQKMEKPQTALQYWKQALHLDFQCLAALYHSSSVYKEMGNVDAELEALNLLYKALLSPEQEAPSTKTCFLIGTEQIVNAPSLTSAVRAPSPWKVKYLIARRCLENKRGEEAVEHYLDLLALLQDESHQDLLPNPEPLIRIPEVFLETAAGLVLEKRYQDAMTVCEEVLGRTDDLIPGSLSVDSTQSKSNVMAEQLNLVLWASAAHLHQGLSHGLLGDQKESVTEYTKCINLLVKVQFIDTGCASPHCSRGSGDEMEISLIGLCSKEETVLCALKAAAFLGRSRQFLALGKHKESLLNMQLSLQASPAFPGAALTLVGHLIKLGRRTEAGSYLKRYQSERKTLADQWEAMKRNLPLYLDPHINHTFPAEDSLIKELEESAEEMQSEAVV
Regarding B1, the binding entry in test [1] and in test [2] was “binds” in each case.

(Values after PMC7102982.)
